± gives the standard deviation of the averaged measurements. The list shows a part of the results.
System: APPdp1-6 iPSC-derived neurons
Test: pThr231Tau/total Tau ratio Z-score vs DMSO vehicle wells; higher = more pThr231Tau relative to total Tau
Conditions: 5 µM; treatment time 5 days

| Compound | pThr231Tau/total Tau ratio Z-score |
| --- | --- |
| CC(=O)Nc1ccc(OC(C)=O)cc1 | -1.14 ± 1.4 |
| NC1CCN(c2c(F)cc3c(=O)c(C(=O)O)cn(C4CC4)c3c2Cl)C1 (stereo not given) [Prestw-1379] | -0.779 ± 0.11 |
| C[N+](C)(CCOc1ccccc1)Cc1ccccc1.O=C([O-])c1cc2ccccc2cc1O [Prestw-936] | -0.0627 ± 0.17 |
| CC(NCCc1ccc(O)cc1)C(O)c1ccc(O)cc1 (stereo not given) [Prestw-349] | -0.196 ± 1.8 |
| CCc1nn(CCCN2CCN(c3cccc(Cl)c3)CC2)c(=O)n1CCOc1ccccc1 [Prestw-1152] | 0.0551 ± 0.6 |
| Cc1nc2sccn2c(=O)c1CCN1CCC(=C(c2ccc(F)cc2)c2ccc(F)cc2)CC1 | -0.613 ± 1 |
| C[C@H](CCC(=O)O)[C@H]1CC[C@H]2[C@@H]3C(=O)C[C@@H]4CC(=O)CC[C@]4(C)[C@H]3CC(=O)[C@]12C [Prestw-123] | 1.03 ± 0.14 |
| CCOC(=O)C1=C(C)NC(C)=C(C(=O)OC)C1c1cccc(Cl)c1Cl (stereo not given) [Prestw-478] | 0.199 ± 2 |
| O=C1c2c(O)ccc(O)c2C(=O)c2c(NCCNCCO)ccc(NCCNCCO)c21 [Prestw-385] | -4.16 ± 1.9 |
| O=C(NC(Cc1cc(=O)[nH]c2ccccc12)C(=O)O)c1ccc(Cl)cc1 (stereo not given) [Prestw-1166] | 0.00334 ± 0.71 |
| Nc1ncn(C2OC(CO)C(O)C2O)c(=O)n1 (stereo not given) [Prestw-866] | 0.373 ± 0.39 |
| C[N+](C)(C)CCOC(N)=O [Prestw-880] | 0.121 ± 0.94 |
| CC(C)(C)NC[C@H](O)COc1cccc2c1CCCC2=O [Prestw-847] | 0.757 ± 0.052 |
| O=C(O)CCC(=O)c1ccc(-c2ccccc2)cc1 [Prestw-218] | -0.416 ± 0.58 |
| N[C@@H](Cc1ccc(O)c(O)c1)C(=O)O [Prestw-17] | 0.813 ± 0.062 |
| CN1CCN2c3ccccc3Cc3ccccc3C2C1 (stereo not given) [Prestw-99] | -0.685 ± 0.62 |
| O=C1c2cccc(O)c2C(=O)c2c(O)cccc21 [DANTRON    Cathartic ex Rheum palmatum, Xyris semifuscata] | -0.0604 ± 0.0028 |
| CCOC(N)=O [URETHANE    Therap cat: antineoplastic, cytotoxic] | 0.83 ± 1.6 |
| CC(C)NNC(=O)c1ccncc1 [Prestw-176] | 0.426 ± 1.2 |
| CC(=O)N=c1sc(S(N)(=O)=O)nn1C [Prestw-802] | -0.412 ± 1 |
| Cc1cc2nc3c(=O)[nH]c(=O)nc-3n(C[C@H](O)[C@H](O)[C@H](O)COP(=O)(O)O)c2cc1C [RIBOFLAVIN 5-PHOSPHATE SODIUM, vitamin, enzyme cofactor] | 0.705 ± 1.1 |
| COc1ccc(C[C@@H](C)NC[C@H](O)c2ccc(O)c(NC=O)c2)cc1 [Prestw-1421] | -1.08 ± 0.87 |
| CCN(CC)CCNC(=O)c1cc(Br)c(N)cc1OC [Prestw-704] | -0.163 ± 1.9 |
| OC(CCN1CCCCC1)(c1ccccc1)c1ccccc1 [Prestw-799] | -0.824 ± 0.73 |
| Cn1c(=O)c2c(ncn2CC2OCCO2)n(C)c1=O [Prestw-1136] | -0.814 ± 0.53 |
| CN1CCN(CC(=O)N2c3ccccc3C(=O)Nc3cccnc32)CC1 [Prestw-129] | -0.978 ± 0.6 |
| CC(=O)N(CC(O)CO)c1c(I)c(C(=O)NCC(O)CO)c(I)c(C(=O)NCC(O)CO)c1I (stereo not given) [Prestw-512] | -0.0769 ± 0.65 |

Given with each value named: entries from further up
CC(=O)Nc1ccc(OC(C)=O)cc1
  pThr231Tau/total Tau ratio Z-score: -1.14 ± 1.4
CCOC(=O)C1=C(C)NC(C)=C(C(=O)OC)C1c1cccc(Cl)c1Cl (stereo not given) [Prestw-478]
  pThr231Tau/total Tau ratio Z-score: 0.199 ± 2
O=C1c2c(O)ccc(O)c2C(=O)c2c(NCCNCCO)ccc(NCCNCCO)c21 [Prestw-385]
  pThr231Tau/total Tau ratio Z-score: -4.16 ± 1.9
CC(C)(C)NC[C@H](O)COc1cccc2c1CCCC2=O [Prestw-847]
  pThr231Tau/total Tau ratio Z-score: 0.757 ± 0.052

(continued)

| Compound | pThr231Tau/total Tau ratio Z-score |
| --- | --- |
| CN(CCCCCCCCCCN(C)C(=O)Oc1cccc([N+](C)(C)C)c1)C(=O)Oc1cccc([N+](C)(C)C)c1 [Prestw-616] | -0.781 ± 0.45 |
| Cn1cc[nH]c1=S [Prestw-786] | -0.507 ± 1.2 |
| C[C@H]1O[C@H](O[C@H]2[C@H](O)[C@@H](O)[C@@H](O[C@@H]([C@H](O)[C@@H](O)C=O)[C@H](O)CO)O[C@@H]2CO)[C@H](O)[C@@H](O)[C@@H]1N[C@H]1C=C(CO)[C@@H](O)[C@H](O)[C@H]1O [Prestw-1174] | 1.2 ± 1.7 |
| CC1=NS(=O)(=O)c2cc(Cl)ccc2N1 [Prestw-87] | 2.85 ± 0.41 |
| c1ccc(-c2ccc(C(c3ccccc3)n3ccnc3)cc2)cc1 (stereo not given) [Prestw-1241] | -1.56 ± 0.26 |
| Oc1c(Cl)cc(Cl)c2cccnc12 [Prestw-1474] | -1.69 ± 0.85 |
| CN(C)CCC(c1ccc(Br)cc1)c1ccccn1 (stereo not given) [Prestw-475] | 0.453 ± 0.35 |
| CC(=O)OC[C@H]1O[C@@H]([S-])[C@H](OC(C)=O)[C@@H](OC(C)=O)[C@@H]1OC(C)=O.CCP(CC)CC.[Au+] [Prestw-1233] | -2.33 ± 0.47 |
| CCC1(c2ccccc2)C(=O)NCNC1=O [Prestw-933] | 1.37 ± 0.57 |
| N#Cc1ccc2c(c1)N(CCCN1CCC(O)CC1)c1ccccc1S2 [PERICIAZINE    Therap cat: antipsychotic] | 0.5 ± 1.3 |
| Nc1ncnc2c1ncn2[C@@H]1O[C@H](CO)[C@@H](O)[C@@H]1O [Prestw-768] | -0.43 ± 1.1 |
| C[C@H]1C[C@H]2[C@@H]3CCC4=CC(=O)C=C[C@]4(C)[C@@]3(F)[C@@H](O)C[C@]2(C)[C@@]1(O)C(=O)COP(=O)(O)O | 1.02 ± 0.74 |
| C[C@@](Cc1ccc(O)c(O)c1)(NN)C(=O)O [Prestw-1177] | -0.0182 ± 1.1 |
| CN(C)CCOC(c1ccccc1)c1ccccc1.Cn1c(=O)c2[nH]c(Cl)nc2n(C)c1=O [Prestw-265] | 0.184 ± 1.8 |
| O=C1NCC2(CCN(CCc3ccccc3)CC2)O1 [Prestw-213] | -0.872 ± 1 |
| Clc1ccc2c(c1)CCc1cccnc1C2=C1CCNCC1 [Prestw-1390] | 0.0479 ± 0.65 |
| Cc1cc2nc3c(=O)[nH]c(=O)nc-3n(C[C@H](O)[C@H](O)[C@H](O)CO)c2cc1C | -0.125 ± 0.25 |
| O=C(c1ccc(F)cc1)C1CCN(CCn2c(=O)[nH]c3ccccc3c2=O)CC1 [Prestw-392] | 1.24 ± 1 |
| CCN(CC)C(=O)c1ccc(O)c(OC)c1 [Prestw-500] | 0.0641 ± 0.031 |
| CCCCCCCCCCOc1cc2c(=O)c(C(=O)OCC)c[nH]c2cc1OCC [DECOQUINATE, coccidiostat] | -0.00316 ± 0.46 |
| CNCCc1ccccn1 [Prestw-543] | 0.522 ± 0.66 |
| CC=CC(=O)N(CC)c1ccccc1C [Prestw-951] | 0.244 ± 0.065 |
| CCCCCCCCCCCCCCCC(=O)OC[C@H](O)[C@H]1OC(=O)C(O)=C1O [ASCORBYL PALMITATE, antioxidant] | -0.611 ± 1.2 |
| Nc1nc2c(ncn2COC(CO)CO)c(=O)[nH]1 [Prestw-839] | -0.435 ± 1.7 |
| Clc1cccc(Cl)c1NC1=NCCN1 [Prestw-248] | 0.192 ± 0.32 |
| CO[C@H]1/C=C/O[C@@]2(C)Oc3c(C)c(O)c4c(O)c(c5c(nc6cc(C)ccn65)c4c3C2=O)NC(=O)/C(C)=C\C=C\[C@H](C)[C@H](O)[C@@H](C)[C@@H](O)[C@@H](C)[C@H](OC(C)=O)[C@@H]1C [Prestw-1478] | -0.567 ± 0.51 |
| CC(=O)O[C@]1(C(C)=O)CC[C@H]2[C@@H]3C=C(Cl)C4=CC(=O)CC[C@]4(C)[C@H]3CC[C@@]21C [Prestw-1374] | -0.356 ± 0.79 |

| Compound | pThr231Tau/total Tau ratio Z-score |
| --- | --- |
| CCCNC(=O)NS(=O)(=O)c1ccc(Cl)cc1 [Prestw-323] | -0.905 ± 0.21 |
| CCN(CC)C(C)CN1c2ccccc2Sc2ccccc21 (stereo not given) [Prestw-840] | -1.57 ± 1.4 |
| CCCCC1C(=O)N(c2ccccc2)N(c2ccc(O)cc2)C1=O (stereo not given) [Prestw-1049] | -0.0955 ± 0.72 |
| N[C@H]1CONC1=O [Prestw-1086] | 0.609 ± 0.27 |
| N[C@H]1CONC1=O [Prestw-1089] | -1.21 ± 0.9 |
| CCN(CC)C(=O)Nc1ccc(OCC(O)CNC(C)(C)C)c(C(C)=O)c1 (stereo not given) [Prestw-1132] | -0.286 ± 0.054 |
| CC(=O)Nc1ccc(OC(=O)c2ccccc2O)cc1 [ACETAMINOSALOL    Therap cat: analgesic, antipyretic] | 1.15 ± 1.2 |
| COc1cc2nc(N3CCN(C(=O)C4COc5ccccc5O4)CC3)nc(N)c2cc1OC (stereo not given) [Prestw-858] | 0.0527 ± 0.72 |
| Cc1cc(C(C)(C)C)cc(C)c1CC1=NCCN1 [Prestw-223] | 0.685 ± 0.25 |
| CCN(CCCCOC(=O)c1ccc(OC)c(OC)c1)C(C)Cc1ccc(OC)cc1 (stereo not given) [Prestw-310] | -0.531 ± 0.21 |
| C[C@@H]1C[C@H]2[C@@H]3CCC4=CC(=O)C=C[C@]4(C)[C@@]3(F)[C@@H](O)C[C@]2(C)[C@H]1C(=O)CO [DESOXYMETASONE, antiinflammatory] | 1.81 ± 1.1 |
| CCN(CC)CCOCCOC(=O)C1(c2ccccc2)CCCC1 [Prestw-387] | -0.71 ± 2 |
| Cc1c(N)c(=O)n(-c2ccccc2)n1C [Prestw-181] | 0.0318 ± 0.25 |
| C=CCOc1ccccc1OCC(O)CNC(C)C (stereo not given) [Prestw-1057] | -1.1 ± 1.6 |
| CCOC(=O)Nc1nc2ccccc2[nH]1 [LOBENDAZOLE, anthelmintic] | 1.47 ± 0.83 |
| CCOC(=O)/C=C(C)/C=C/C=C(C)/C=C/c1c(C)cc(OC)c(C)c1C [Prestw-1409] | -0.596 ± 0.69 |
| CN1CCN2c3ncccc3Cc3ccccc3C2C1 (stereo not given) [Prestw-1144] | 1.12 ± 0.63 |
| Cc1cc(C)nc(NS(=O)(=O)c2ccc(N)cc2)n1 [Prestw-775] | 0.188 ± 0.27 |
| CC1(C)O[C@@H]2C[C@H]3[C@@H]4C[C@H](F)C5=CC(=O)C=C[C@]5(C)[C@@]4(F)[C@@H](O)C[C@]3(C)[C@]2(C(=O)CO)O1 [Prestw-1419] | -0.343 ± 0.42 |
| COc1cc(NS(=O)(=O)c2ccc(N)cc2)ncn1 [Prestw-823] | 1.02 ± 0.92 |
| COC(=O)N/N=C/c1c[n+]([O-])c2ccccc2[n+]1[O-] [Prestw-1121] | -0.409 ± 0.2 |
| CN(C(=O)CN(CCO)CC(=O)N(C)C(C)(C)Cc1ccccc1)C(C)(C)Cc1ccccc1 [Prestw-58] | -1.52 ± 0.34 |
| CC(C(O)c1ccc(O)cc1)N1CCC(Cc2ccccc2)CC1 (stereo not given) [Prestw-311] | 0.321 ± 1.4 |
| C[C@@H]1C/C=C/C=C/C=C/C=C/[C@H](O[C@@H]2O[C@H](C)[C@@H](O)[C@H](N)[C@@H]2O)C[C@@H]2O[C@](O)(C[C@@H](O)C[C@H]3O[C@@H]3/C=C/C(=O)O1)C[C@H](O)[C@H]2C(=O)O [NATAMYCIN, antibacterial] | -0.311 ± 0.27 |
| COc1ccc(Cl)cc1C(=O)NCCc1ccc(S(=O)(=O)NC(=O)NC2CCCCC2)cc1 [Prestw-316] | 0.404 |
| CC#C[C@]1(O)CC[C@H]2[C@@H]3CCC4=CC(=O)CCC4=C3[C@@H](c3ccc(N(C)C)cc3)C[C@@]21C [Prestw-299] | 0.1495 ± 0.00016 |

Source: the supplement of paper PMC6414424
